Assay results published in PMC9018197.
Like-named read-outs stand apart in the source and are kept apart here. No constants are given. Whether binding was seen depends on the method and setting. Binding seen in cells or lysates may run through a third protein. Some binding calls cover weakened binding; strength is not graded here.

Amino acid sequences for entries named in this document (tags omitted).
UniProt P10415: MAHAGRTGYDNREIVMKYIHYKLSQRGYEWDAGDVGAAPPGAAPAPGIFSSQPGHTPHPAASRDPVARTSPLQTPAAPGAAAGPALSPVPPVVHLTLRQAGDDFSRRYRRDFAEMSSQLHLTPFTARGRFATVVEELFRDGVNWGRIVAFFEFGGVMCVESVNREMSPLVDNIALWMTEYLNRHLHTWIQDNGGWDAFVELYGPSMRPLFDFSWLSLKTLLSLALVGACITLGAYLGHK

Columns and labels:
[1] = target: Beclin1 (human (endogenous in HaCaT)) (UniProt Q14457); assay: co-IP; HaCaT lysate precipitated with anti-Beclin1 antibody (1:50, overnight, 4°C) and Protein G magnetic beads, washed with PBST, western blot; cells with or without 100 or 200 mM trehalose for 12 or 24 hours, or pretreated with 100 mM trehalose for 24 hours before 50 mJ/cm^2 UVB
[2] = target: Beclin1 (human (endogenous in HaCaT)) (UniProt Q14457); assay: as above; remark: listed apart in the source

| binding [1] | binding [2] | Molecule |
| --- | --- | --- |
| binds |  | B-cell lymphoma 2 (Bcl2) (from UniProt P10415 1-239) |
|  | binds | tissue inhibitor of metalloproteinase (TIMP) 3 (protein, UniProt P35625 24-211) CTCSPSHPQDAFCNSDIVIRAKVVGKKLVKEGPFGTLVYTIKQMKMYRGFTKMPHVQYIHTEASESLCGLKLEVNKYQYLLTGRVYDGKMYTGLCNFVERWDQLTLSQRKGLNYRYHLGCNCKIKSCYYLPCFVTSKNECLWTDMLSNFGYPGYQSKHYACIRQKGGYCSWYRGWAPPDKSIINATDP |
